The values below come from the supplement of paper PMC5836539.

The chains behind the UniProt entries cited, without tags or fusion partners. Where a name states a change or a piece, a line headed by the entry shows the natural chain unless it says otherwise.
UniProt Q9UQ35: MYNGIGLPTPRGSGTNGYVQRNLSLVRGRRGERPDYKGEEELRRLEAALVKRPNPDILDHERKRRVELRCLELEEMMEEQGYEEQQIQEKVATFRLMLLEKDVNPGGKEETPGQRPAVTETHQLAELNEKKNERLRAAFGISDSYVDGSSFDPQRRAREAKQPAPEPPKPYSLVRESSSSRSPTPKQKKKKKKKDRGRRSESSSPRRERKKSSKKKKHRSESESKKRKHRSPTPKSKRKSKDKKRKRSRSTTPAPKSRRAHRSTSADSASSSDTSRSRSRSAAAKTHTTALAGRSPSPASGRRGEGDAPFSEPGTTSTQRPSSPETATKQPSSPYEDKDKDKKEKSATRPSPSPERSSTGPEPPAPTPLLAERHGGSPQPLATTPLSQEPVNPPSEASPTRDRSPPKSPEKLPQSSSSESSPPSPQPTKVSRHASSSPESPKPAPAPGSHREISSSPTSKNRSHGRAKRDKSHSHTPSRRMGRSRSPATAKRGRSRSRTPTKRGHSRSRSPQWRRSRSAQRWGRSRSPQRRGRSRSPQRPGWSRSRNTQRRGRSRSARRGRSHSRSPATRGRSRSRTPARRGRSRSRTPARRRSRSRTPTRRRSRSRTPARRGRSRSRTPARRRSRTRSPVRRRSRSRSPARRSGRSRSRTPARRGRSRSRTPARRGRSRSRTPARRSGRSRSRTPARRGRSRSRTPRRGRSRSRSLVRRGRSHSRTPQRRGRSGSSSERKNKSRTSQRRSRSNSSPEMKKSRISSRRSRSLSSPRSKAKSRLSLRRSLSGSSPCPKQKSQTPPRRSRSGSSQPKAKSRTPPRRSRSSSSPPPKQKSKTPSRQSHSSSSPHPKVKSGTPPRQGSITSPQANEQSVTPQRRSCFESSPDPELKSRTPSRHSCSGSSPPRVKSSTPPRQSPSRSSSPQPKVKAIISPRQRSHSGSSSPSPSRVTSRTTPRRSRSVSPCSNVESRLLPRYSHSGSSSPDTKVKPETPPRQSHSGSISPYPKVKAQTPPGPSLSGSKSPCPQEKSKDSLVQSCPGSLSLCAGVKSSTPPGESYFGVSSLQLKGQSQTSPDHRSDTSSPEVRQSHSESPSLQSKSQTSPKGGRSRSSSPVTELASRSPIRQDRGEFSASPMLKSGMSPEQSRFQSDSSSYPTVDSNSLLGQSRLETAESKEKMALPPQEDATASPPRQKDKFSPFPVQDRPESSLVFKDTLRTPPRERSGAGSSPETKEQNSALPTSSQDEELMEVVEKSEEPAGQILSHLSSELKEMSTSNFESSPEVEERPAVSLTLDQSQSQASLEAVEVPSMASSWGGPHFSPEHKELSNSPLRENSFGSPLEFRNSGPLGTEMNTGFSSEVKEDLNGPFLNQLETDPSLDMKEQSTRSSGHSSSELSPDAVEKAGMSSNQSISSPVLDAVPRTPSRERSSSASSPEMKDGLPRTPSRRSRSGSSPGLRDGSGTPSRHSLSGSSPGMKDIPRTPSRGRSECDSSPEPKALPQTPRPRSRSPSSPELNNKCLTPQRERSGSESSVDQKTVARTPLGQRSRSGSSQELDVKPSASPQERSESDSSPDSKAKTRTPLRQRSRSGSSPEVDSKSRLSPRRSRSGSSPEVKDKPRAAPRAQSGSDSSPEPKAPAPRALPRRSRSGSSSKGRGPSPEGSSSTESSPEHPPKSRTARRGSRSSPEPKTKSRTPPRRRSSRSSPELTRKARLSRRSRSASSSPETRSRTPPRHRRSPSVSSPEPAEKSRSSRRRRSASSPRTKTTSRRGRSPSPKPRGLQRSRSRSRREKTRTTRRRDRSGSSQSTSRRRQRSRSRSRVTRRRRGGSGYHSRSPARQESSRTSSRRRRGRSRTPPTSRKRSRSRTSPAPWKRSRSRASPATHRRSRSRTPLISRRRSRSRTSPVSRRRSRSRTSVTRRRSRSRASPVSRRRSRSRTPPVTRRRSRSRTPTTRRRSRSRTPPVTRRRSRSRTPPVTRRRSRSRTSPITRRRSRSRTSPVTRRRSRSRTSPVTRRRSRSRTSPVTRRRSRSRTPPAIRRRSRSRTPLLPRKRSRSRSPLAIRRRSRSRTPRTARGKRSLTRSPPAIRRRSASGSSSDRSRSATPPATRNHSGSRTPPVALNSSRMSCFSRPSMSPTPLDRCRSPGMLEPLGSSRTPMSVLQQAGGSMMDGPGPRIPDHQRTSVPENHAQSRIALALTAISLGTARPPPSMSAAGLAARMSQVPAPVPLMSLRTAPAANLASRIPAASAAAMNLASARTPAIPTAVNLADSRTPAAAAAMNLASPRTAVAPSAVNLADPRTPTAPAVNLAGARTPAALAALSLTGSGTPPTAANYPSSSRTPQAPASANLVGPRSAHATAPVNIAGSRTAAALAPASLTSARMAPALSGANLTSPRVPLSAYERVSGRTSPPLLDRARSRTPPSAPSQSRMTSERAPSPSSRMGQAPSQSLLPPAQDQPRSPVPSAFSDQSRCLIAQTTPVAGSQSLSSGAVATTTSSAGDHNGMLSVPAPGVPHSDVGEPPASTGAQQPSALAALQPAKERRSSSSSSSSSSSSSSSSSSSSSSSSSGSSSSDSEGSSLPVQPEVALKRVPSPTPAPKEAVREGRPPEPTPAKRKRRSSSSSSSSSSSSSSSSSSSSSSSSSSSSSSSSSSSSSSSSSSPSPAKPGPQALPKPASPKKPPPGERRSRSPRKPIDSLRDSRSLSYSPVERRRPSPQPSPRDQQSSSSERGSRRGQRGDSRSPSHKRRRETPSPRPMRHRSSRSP
UniProt Q13263: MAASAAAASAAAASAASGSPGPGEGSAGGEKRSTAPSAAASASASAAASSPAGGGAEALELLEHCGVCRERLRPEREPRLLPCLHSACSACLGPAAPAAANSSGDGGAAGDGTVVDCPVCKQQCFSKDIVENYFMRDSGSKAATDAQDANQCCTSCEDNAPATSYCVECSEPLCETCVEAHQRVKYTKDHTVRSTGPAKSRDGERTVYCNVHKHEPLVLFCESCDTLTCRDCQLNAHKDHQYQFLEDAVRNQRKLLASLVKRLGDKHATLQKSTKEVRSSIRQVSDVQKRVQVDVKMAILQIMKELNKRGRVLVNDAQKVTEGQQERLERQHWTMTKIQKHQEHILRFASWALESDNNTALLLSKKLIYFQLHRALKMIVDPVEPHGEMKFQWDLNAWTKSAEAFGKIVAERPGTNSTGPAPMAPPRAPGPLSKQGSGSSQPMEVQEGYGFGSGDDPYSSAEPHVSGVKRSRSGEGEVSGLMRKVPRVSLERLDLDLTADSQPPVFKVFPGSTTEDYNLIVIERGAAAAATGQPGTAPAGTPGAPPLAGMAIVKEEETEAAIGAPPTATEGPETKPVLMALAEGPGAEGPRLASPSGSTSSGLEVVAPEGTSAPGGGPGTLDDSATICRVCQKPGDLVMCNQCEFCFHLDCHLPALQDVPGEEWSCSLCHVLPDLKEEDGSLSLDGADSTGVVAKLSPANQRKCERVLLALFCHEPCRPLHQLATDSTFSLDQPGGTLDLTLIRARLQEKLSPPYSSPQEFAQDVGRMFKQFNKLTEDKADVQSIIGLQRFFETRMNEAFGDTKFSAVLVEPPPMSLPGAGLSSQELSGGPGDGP
UniProt Q86VM9: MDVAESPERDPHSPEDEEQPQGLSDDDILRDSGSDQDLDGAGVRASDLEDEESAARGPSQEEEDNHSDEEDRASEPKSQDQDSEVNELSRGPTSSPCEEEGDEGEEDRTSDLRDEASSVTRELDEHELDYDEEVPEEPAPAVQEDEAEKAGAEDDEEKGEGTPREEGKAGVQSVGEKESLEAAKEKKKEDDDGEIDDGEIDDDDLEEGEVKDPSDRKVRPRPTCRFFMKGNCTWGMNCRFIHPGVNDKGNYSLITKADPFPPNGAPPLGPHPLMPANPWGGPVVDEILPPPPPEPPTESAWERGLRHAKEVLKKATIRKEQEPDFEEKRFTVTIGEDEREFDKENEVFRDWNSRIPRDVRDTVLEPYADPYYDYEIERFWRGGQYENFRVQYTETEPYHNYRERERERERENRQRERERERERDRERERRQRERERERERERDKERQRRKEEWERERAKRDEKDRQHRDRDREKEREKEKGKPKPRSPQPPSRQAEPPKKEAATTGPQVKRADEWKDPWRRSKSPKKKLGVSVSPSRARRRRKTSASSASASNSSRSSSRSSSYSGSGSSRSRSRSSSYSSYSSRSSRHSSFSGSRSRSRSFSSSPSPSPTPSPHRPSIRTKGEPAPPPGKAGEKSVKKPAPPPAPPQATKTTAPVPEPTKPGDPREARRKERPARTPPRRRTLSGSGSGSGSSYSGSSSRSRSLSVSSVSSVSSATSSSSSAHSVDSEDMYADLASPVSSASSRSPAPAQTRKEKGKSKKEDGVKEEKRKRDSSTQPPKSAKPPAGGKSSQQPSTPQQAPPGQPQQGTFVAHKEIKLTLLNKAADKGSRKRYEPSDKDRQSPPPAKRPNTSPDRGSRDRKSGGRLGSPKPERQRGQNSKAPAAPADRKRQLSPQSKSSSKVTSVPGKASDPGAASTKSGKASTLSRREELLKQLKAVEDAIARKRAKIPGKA
UniProt Q9Y6R0: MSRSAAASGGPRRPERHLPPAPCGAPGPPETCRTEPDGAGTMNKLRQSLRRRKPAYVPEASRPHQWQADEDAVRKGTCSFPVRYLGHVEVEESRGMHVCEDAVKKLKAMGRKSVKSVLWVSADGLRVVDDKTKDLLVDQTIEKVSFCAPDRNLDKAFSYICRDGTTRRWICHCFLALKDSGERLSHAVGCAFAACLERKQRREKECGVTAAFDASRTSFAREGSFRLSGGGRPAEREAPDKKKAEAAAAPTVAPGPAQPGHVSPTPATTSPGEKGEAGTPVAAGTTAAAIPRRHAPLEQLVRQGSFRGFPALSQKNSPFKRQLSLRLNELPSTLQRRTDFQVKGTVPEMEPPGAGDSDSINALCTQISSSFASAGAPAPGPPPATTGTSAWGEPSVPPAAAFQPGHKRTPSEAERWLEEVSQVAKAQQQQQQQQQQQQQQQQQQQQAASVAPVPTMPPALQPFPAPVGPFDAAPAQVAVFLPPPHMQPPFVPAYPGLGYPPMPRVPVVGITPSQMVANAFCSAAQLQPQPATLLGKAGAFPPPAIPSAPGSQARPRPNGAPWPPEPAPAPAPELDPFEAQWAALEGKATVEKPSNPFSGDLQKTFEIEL
UniProt P35221: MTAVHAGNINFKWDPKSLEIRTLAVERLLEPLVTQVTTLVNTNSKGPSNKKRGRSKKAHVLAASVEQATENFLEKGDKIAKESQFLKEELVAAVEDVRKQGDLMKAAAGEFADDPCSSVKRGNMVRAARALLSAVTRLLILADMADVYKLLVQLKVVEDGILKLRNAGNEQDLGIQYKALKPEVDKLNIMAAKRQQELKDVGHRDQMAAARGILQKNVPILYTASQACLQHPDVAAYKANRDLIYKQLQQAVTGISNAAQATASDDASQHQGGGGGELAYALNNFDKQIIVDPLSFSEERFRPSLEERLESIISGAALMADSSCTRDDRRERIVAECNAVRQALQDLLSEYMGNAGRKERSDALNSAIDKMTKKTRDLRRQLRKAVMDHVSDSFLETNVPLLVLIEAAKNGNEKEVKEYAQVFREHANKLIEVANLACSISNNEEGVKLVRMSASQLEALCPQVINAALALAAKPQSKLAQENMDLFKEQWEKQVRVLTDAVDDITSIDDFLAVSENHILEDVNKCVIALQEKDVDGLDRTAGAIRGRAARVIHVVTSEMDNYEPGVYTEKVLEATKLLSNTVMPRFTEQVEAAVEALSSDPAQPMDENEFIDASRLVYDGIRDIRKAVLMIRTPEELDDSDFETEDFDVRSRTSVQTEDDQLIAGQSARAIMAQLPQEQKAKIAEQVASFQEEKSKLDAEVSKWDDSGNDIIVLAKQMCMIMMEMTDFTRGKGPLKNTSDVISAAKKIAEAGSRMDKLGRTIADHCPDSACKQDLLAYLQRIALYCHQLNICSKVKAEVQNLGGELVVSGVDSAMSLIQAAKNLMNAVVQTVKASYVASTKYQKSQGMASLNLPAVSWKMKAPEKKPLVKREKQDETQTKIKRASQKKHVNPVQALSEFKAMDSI
UniProt P51608, whole entry: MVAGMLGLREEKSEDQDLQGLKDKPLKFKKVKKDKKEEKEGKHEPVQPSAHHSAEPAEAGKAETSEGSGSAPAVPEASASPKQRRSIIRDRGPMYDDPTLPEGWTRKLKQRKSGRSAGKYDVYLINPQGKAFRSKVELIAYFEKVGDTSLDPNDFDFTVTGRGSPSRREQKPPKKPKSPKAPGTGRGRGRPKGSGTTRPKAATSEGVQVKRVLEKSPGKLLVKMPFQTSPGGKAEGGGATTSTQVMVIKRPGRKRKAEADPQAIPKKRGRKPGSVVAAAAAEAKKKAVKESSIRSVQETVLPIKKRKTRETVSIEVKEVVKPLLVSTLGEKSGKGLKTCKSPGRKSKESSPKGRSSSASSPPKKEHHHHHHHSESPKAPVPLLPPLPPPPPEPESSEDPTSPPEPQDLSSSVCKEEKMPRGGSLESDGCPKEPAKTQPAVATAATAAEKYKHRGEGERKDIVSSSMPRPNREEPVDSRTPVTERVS

± gives the standard deviation of the averaged measurements. Repeats in this data set agree poorly, so a single value says little.

Compound in the assay: CC[C@@H](C)Nc1cc(C(=O)N[C@H]2C[C@H]3CC[C@@H](C2)N3c2ccc(C(=O)C3CC3)cn2)c(C)cc1C(N)=O [XL888]
Nature of the assay: phosphopeptide melting temperature shift (XL888 minus DMSO); higher = stabilised by drug treatment. Conditions: 100 µM; treatment time 2 h; layout: intact cells; SK-Mel 24. The protocol:
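Phospho-TPP in intact SK-Mel 24 cells treated with 100 uM XL888 or DMSO for 2 h, heated at 10 temperatures (37-67 C) for 3 min, soluble fraction TMT10plex-labelled and TiO2 phospho-enriched. Melting curves were fitted per phosphopeptide; the value is the melting point difference (drug minus vehicle) in each of two biological replicates.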
Regarding “PACSIN3 phosphosite_354 (phosphosite position: 354) (UniProt Q9UKS6)”, the “phosphopeptide melting temperature shift” value is 2.08 °C.
With “THRAP3 phosphosite_535 (phosphosite position: 535) (UniProt Q9Y2W1)”, the “phosphopeptide melting temperature shift” value is -2.37 °C.
In the case of “UniProt Q9BZ23-3_phosphosite_45 (phosphosite position: 45)” it was -2.68 °C; in that of “SRRM1 phosphosite_695 (phosphosite position: 695) (UniProt Q8IYB3)”, -0.101 °C.
Then “UniProt Q13428-6_phosphosite_1190 (phosphosite position: 1190)”, with -1.57 °C.
With “UniProt Q13017-2_phosphosite_1218 (phosphosite position: 1218)”, the “phosphopeptide melting temperature shift” value was found to be 0.423 °C.
Turning to “UniProt Q86W92-2_phosphosite_534 (phosphosite position: 534)”, the “phosphopeptide melting temperature shift” value worked out at 0.564 ± 0.54 °C.
Then “SRRM2 phosphosite_2398 (phosphosite position: 2398) (UniProt Q9UQ35)”, with 0.937 °C; and “UniProt O60343-2_phosphosite_588 (phosphosite position: 588)”, with 0.724 ± 0.024 °C; and “TALDO1 phosphosite_237 (phosphosite position: 237) (UniProt P37837)”, with 2.05 °C.
Take “GAPDH phosphosite_210 (phosphosite position: 210) (UniProt P04406)”: the “phosphopeptide melting temperature shift” value was -0.0667 °C.
In the case of “UniProt Q9H1B7_phosphosite_334 (phosphosite position: 334)” it was 0.214 °C; in that of “PAK4 phosphosite_104 (phosphosite position: 104) (UniProt O96013)”, 0.26 ± 1.2 °C; in that of “SH2B3 phosphosite_150 (phosphosite position: 150) (UniProt Q9UQQ2)”, 3.36 °C.
Then “TRIM28 phosphosite_489 (phosphosite position: 489) (UniProt Q13263)”, with -0.33 ± 0.045 °C; and “UniProt Q15139_phosphosite_742 (phosphosite position: 742)”, with -3.01 °C; and “UniProt Q9BVC5-2_phosphosite_185 (phosphosite position: 185)”, with -2.33 °C.
Then “NSFL1C phosphosite_114 (phosphosite position: 114) (UniProt Q9UNZ2)”, with -0.507 ± 0.9 °C; and “UniProt Q13459-2_phosphosite_1281 (phosphosite position: 1281)”, with 0.477 ± 0.21 °C; and “UniProt Q9NWV8-3_phosphosite_27 (phosphosite position: 27)”, with 0.415 °C.
With “UBE2O phosphosite_896 (phosphosite position: 896) (UniProt Q9C0C9)”, the “phosphopeptide melting temperature shift” value came to 0.303 °C.
Then “SRRM2 phosphosite_914 (phosphosite position: 914) (UniProt Q9UQ35)”, with 0.807 °C.
Take “NOL12 phosphosite_134 (phosphosite position: 134) (UniProt Q9UGY1)”: the “phosphopeptide melting temperature shift” value was -0.949 °C.
Then “UniProt Q8IY67-2_phosphosite_617 (phosphosite position: 617)”, with -2.82 °C; and “UniProt O96017-13_phosphosite_39 (phosphosite position: 39)”, with 0.611 °C.
In the case of “ZC3H18 phosphosite_893 (phosphosite position: 893) (UniProt Q86VM9)” it was -3.42 °C.
Then “UniProt P57081-2_phosphosite_390 (phosphosite position: 390)”, with 0.894 ± 0.25 °C.
On to “ILF3 phosphosite_592 (phosphosite position: 592) (UniProt Q12906)”, for which the “phosphopeptide melting temperature shift” value stood at 1.23 °C.
Then “SRRM2 phosphosite_1124 (phosphosite position: 1124) (UniProt Q9UQ35)”, with 2.94 ± 1.7 °C.
Then “SMARCC1 phosphosite_310 (phosphosite position: 310) (UniProt Q92922)”, with 0.455 ± 0.85 °C; and “ZBTB7A phosphosite_337 (phosphosite position: 337) (UniProt O95365)”, with -0.93 °C; and “ARGLU1 phosphosite_77 (phosphosite position: 77) (UniProt Q9NWB6)”, with 1.28 °C.
In the case of “UniProt Q5T4S7-3_phosphosite_181 (phosphosite position: 181)” it was 0.92 °C.
With “UniProt Q6PCT2-2_phosphosite_99 (phosphosite position: 99)”, the “phosphopeptide melting temperature shift” value worked out at 4.71 °C.
Then “UniProt Q9Y3R5-2_phosphosite_610 (phosphosite position: 610)”, with -0.33 ± 0.045 °C.
Then “HTATSF1 phosphosite_714 (phosphosite position: 714) (UniProt O43719)”, with 0.718 °C; and “UniProt Q641Q2-2_phosphosite_728 (phosphosite position: 728)”, with -1.89 °C.
In the case of “NUMBL phosphosite_411 (phosphosite position: 411) (UniProt Q9Y6R0)” it was -1.17 °C; in that of “UniProt Q96PU5-9_phosphosite_307 (phosphosite position: 307)”, 0.231 °C.
Regarding “ARHGEF11 phosphosite_1480 (phosphosite position: 1480) (UniProt O15085)”, the “phosphopeptide melting temperature shift” value was -1.11 °C.
Then “UniProt P18206-2_phosphosite_721 (phosphosite position: 721)”, with 1.06 ± 0.19 °C.
Then “LIMA1 phosphosite_374 (phosphosite position: 374) (UniProt Q9UHB6)”, with 2.89 °C; and “UniProt Q9UPN9-2_phosphosite_1102 (phosphosite position: 1102)”, with -0.766 °C; and “UniProt P61978-2_phosphosite_284 (phosphosite position: 284)”, with -0.602 °C.
Then “UniProt Q13428-6_phosphosite_906 (phosphosite position: 906)”, with -0.137 ± 0.29 °C.
For the target “LARP1 phosphosite_521 (phosphosite position: 521) (UniProt Q6PKG0)”, the “phosphopeptide melting temperature shift” value was 0.651 °C.
For “XPO5 phosphosite_416 (phosphosite position: 416) (UniProt Q9HAV4)”, the “phosphopeptide melting temperature shift” value is -2.39 °C.
In the case of “UniProt O60504-2_phosphosite_203 (phosphosite position: 203)”, the “phosphopeptide melting temperature shift” value is 0.906 ± 0.2 °C.
Consider “UniProt P48634_phosphosite_808 (phosphosite position: 808)”, for which the “phosphopeptide melting temperature shift” value is -3.15 °C.
In the case of “UniProt Q8WVV9-3_phosphosite_30 (phosphosite position: 30)” it was 1.69 °C; in that of “CTNNA1 phosphosite_641 (phosphosite position: 641) (UniProt P35221)”, 0.17 °C.
“UniProt Q9Y6M1-1_phosphosite_162 (phosphosite position: 162)”: the “phosphopeptide melting temperature shift” value was -0.24 °C.
In the case of “NPM1 phosphosite_67 (phosphosite position: 67) (UniProt P06748)” it was 1.96 °C.
Turning to “UniProt Q8WVC0-2_phosphosite_140 (phosphosite position: 140)”, the “phosphopeptide melting temperature shift” value turned out to be 1.74 °C.
In the case of “UniProt Q96RR4-6_phosphosite_100 (phosphosite position: 100)” it was 0.242 ± 0.064 °C; in that of “UniProt P40818-2_phosphosite_613 (phosphosite position: 613)”, 0.761 °C; in that of “ENO1 phosphosite_419 (phosphosite position: 419) (UniProt P06733)”, -1.62 °C.
In the case of “ADD1 phosphosite_12 (phosphosite position: 12) (UniProt P35611)” it was 0.0536 ± 2.1 °C.
In the case of “UniProt Q9UBF8-2_phosphosite_413 (phosphosite position: 413)” it was 1.47 °C; in that of “UniProt Q96K21-3_phosphosite_286 (phosphosite position: 286)”, 3.46 °C; in that of “UniProt Q86V48-2_phosphosite_659 (phosphosite position: 659)”, -0.755 ± 0.17 °C.
Take “UniProt Q13459-2_phosphosite_1354 (phosphosite position: 1354)”: the “phosphopeptide melting temperature shift” value turned out to be 1.01 °C.
In the case of “UniProt O43236-5_phosphosite_178 (phosphosite position: 178)”, the “phosphopeptide melting temperature shift” value was 2.53 °C.
In the case of “UniProt Q5VZK9-2_phosphosite_1246 (phosphosite position: 1246)” it was 3.1 °C.
Then “ZNF768 phosphosite_125 (phosphosite position: 125) (UniProt Q9H5H4)”, with -1.04 °C; and “MECP2 phosphosite_360 (phosphosite position: 360) (UniProt P51608)”, with 0.331 ± 0.47 °C.
As to “ZC3HC1 phosphosite_395 (phosphosite position: 395) (UniProt Q86WB0)”, the “phosphopeptide melting temperature shift” value is -0.325 °C.
